PubChem BioAssay AID652272 | Drosophila RNAi Screening Center – 2013
The screen tested about 21,000 reagents; below is an unselected part of those with a known target gene and a result. Over the whole deposit, 503 (2.4%) were called active. 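Raw plate light values, not normalised; calls rest on replicate z-scores that were not deposited; hits include reporter decreases as well as increases.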 A plus sign joins genes that one reagent is predicted to hit. Not given: the amount of reagent, the time to read-out.

Test: 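Finding fly genes that regulate Hedgehog signal transduction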 (primary screen)
Cell system: Drosophila clone 8 (Cl8) cells
Reagents: long dsRNA against Drosophila genes
Measured: 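Plate reader light from a firefly reporter under a ptc promoter fragment that responds to Hedgehog, with Renilla light as transfection reference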
Direction: firefly Hh reporter signal: higher = more ptc reporter light; Renilla reference signal: higher = more Renilla control light
Hit rule: 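Hit when the z-score averaged over two replicates is under -2 or over +3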
Calls: active = hit: reporter lowered or raised; inactive = not a hit

Gene | DRSC id | firefly Hh reporter signal, replicate 1 | firefly Hh reporter signal, replicate 2 | firefly Hh reporter signal, replicate 3 | Renilla reference signal, replicate 1 | Renilla reference signal, replicate 2 | Call
Bulli | DRSC10974 | 31344 | 66512 | – | 3547 | 4121 | inactive
CycA (Cyclin A) | DRSC09132 | 91845 | 1.73e5 | – | 3029 | 8930 | inactive
CycA (Cyclin A) | DRSC11123 | 1.17e5 | 52746 | – | 4614 | 2512 | inactive
Cyp28d1 (Cytochrome P450 28d1) | DRSC03298 | 1.48e5 | 1.15e5 | – | 6240 | 4476 | inactive
CG13531 | DRSC04173 | 96163 | 64428 | – | 2312 | 5604 | inactive
TwdlD (TweedleD) | DRSC14738 | 72130 | 82108 | – | 2080 | 2594 | inactive
CG32213 + CG12519 + 825-Oak + 1 more | DRSC09615 | 7.16e5 | 2.57e5 | 1.17e5 | 5130 | 6000 | inactive
Cyp4ac1 (Cytochrome P450 4ac1) | DRSC03302 | 1.36e5 | 1.02e5 | – | 5549 | 3960 | inactive
Lztr1 (Leucine zipper like transcription regulator 1) | DRSC18176 | 69987 | 2.23e5 | – | 2139 | 9472 | inactive
Lztr1 (Leucine zipper like transcription regulator 1) | DRSC18647 | 76562 | 1.76e5 | – | 2497 | 7232 | inactive
CG31769 | DRSC01361 | 1.43e5 | 2.19e5 | – | 3753 | 10227 | inactive
Ulp1 | DRSC19339 | 1.69e5 | 99056 | – | 4160 | 2476 | inactive
mip130 (Myb-interacting protein 130) | DRSC18575 | 88003 | 1.71e5 | – | 4197 | 7162 | inactive
RpS15Ab + RpS15Aa | DRSC06129 | 35226 | 15992 | – | 1488 | 2073 | active
RpS15Ab + RpS15Aa | DRSC19831 | 24640 | 1.02e5 | – | 1751 | 7147 | active
bru2 (bruno 2) | DRSC01246 | 5.87e5 | 2.55e5 | – | 30797 | 12576 | inactive
bru2 (bruno 2) | DRSC01247 | 5.01e5 | 2.06e5 | – | 20708 | 7442 | inactive
bru2 (bruno 2) | DRSC01249 | 5.43e5 | 2.59e5 | – | 31685 | 10538 | inactive
bru2 (bruno 2) | DRSC01250 | 5.07e5 | 2.34e5 | – | 25877 | 10354 | inactive
bru2 (bruno 2) | DRSC02557 | 72369 | 20210 | – | 2204 | 2140 | inactive
CG31729 | DRSC02524 | 1.05e5 | 68096 | – | 4546 | 2674 | inactive
CG31729 | DRSC02946 | 1.11e5 | 52807 | – | 2854 | 5514 | inactive
CG34268 | DRSC07874 | 1.09e5 | 2.05e5 | – | 3664 | 9431 | inactive

The list goes on; the last 4 above are carried over.
Gene | DRSC id | firefly Hh reporter signal, replicate 1 | firefly Hh reporter signal, replicate 2 | firefly Hh reporter signal, replicate 3 | Renilla reference signal, replicate 1 | Renilla reference signal, replicate 2 | Call
bru2 (bruno 2) | DRSC02557 | 72369 | 20210 | – | 2204 | 2140 | inactive
CG31729 | DRSC02524 | 1.05e5 | 68096 | – | 4546 | 2674 | inactive
CG31729 | DRSC02946 | 1.11e5 | 52807 | – | 2854 | 5514 | inactive
CG34268 | DRSC07874 | 1.09e5 | 2.05e5 | – | 3664 | 9431 | inactive
Pka-R1 (Protein kinase, cAMP-dependent, regulatory subunit type 1) | DRSC11674 | 46413 | 38449 | – | 2417 | 2092 | inactive
Pka-R1 (Protein kinase, cAMP-dependent, regulatory subunit type 1) | DRSC11875 | 1.06e5 | 75817 | – | 4064 | 2712 | inactive
Sdr (Secreted decoy of InR) | DRSC15517 | 96244 | 81510 | – | 3680 | 3288 | inactive
dpr19 (defective proboscis extension response 19) | DRSC02237 | 1.22e5 | 72167 | – | 3115 | 6289 | inactive
Klf15 (Kruppel-like factor 15) | DRSC17742 | 59849 | 1.53e5 | – | 2197 | 5777 | inactive
nis | DRSC00290 | 67728 | 65602 | – | 4544 | 4279 | active
CG17931 + CG42446 | DRSC15293 | 1.08e5 | 1.22e5 | – | 1907 | 3237 | inactive
ppk5 (pickpocket 5) | DRSC11492 | 3.42e5 | – | – | 7280 | – | inactive
cry (cryptochrome) | DRSC16928 | 5.21e5 | 74589 | – | 27728 | 1953 | inactive
CadN2 (Cadherin-N2) | DRSC03062 | 1.37e5 | 63702 | – | 3912 | 6800 | inactive
CadN2 (Cadherin-N2) | DRSC03063 | 1.08e5 | 69520 | – | 2612 | 6842 | inactive
CadN2 (Cadherin-N2) | DRSC03064 | 1.22e5 | 71740 | – | 3371 | 6061 | inactive
CG14488 | DRSC06460 | 1.06e5 | 37573 | – | 2947 | 2531 | inactive
CG10576 | DRSC09745 | 83248 | 89984 | – | 4103 | 3831 | inactive
Taf13 (TBP-associated factor 13) | DRSC02106 | 51063 | 27968 | – | 1570 | 3644 | inactive
eEF1alpha2 (eukaryotic translation elongation factor 1 alpha 2) | DRSC14079 | 4.22e5 | 1.98e5 | – | 22672 | 4172 | inactive
eEF1alpha2 (eukaryotic translation elongation factor 1 alpha 2) | DRSC16658 | 58020 | 94041 | – | 2435 | 4729 | inactive
